# Assay: general procedure: Fmoc solid-phase peptide synthesis; Rink amide resin; 2-chloro-trityl chloride resin (1.22 mmol/g loading); PyBOP/NMM; HATU/NMM
# [1] = late stage modification step, TFA salt
Substance,step yield [1],"step yield (coupling step, TFA salt)",other results
chimadanin,,,"step yield (coupling step, over one-pot four-step sequence, TFA salts): 35% yield"
Ac-LYRANADSPGYS-NH2,71%,,
Ac-LYRANVD(β-SH)SPGYS-NH2,,75%,
H-D(SH)SPCYS-NH2,,,"isolated yield (whole synthesis, based on the original 10 mol resin loading, TFA salts): 62%"
Ac-LYRANFDSPGYS-NH2,76%,,
H-(β-SH)DSPGYS-NH2,,,"isolated yield (whole synthesis, based on the original 25 μmol resin loading, scale 25 umol, TFA salts): 84%; isolated mass (whole synthesis, scale 25 umol, TFA salts): 14.8 mg"
Ac-LYRANMD(β-SH)SPGYS-NH2,,71%,
Ac-LYRANVDSPGYS-NH2,71%,,
Ac-LYRANMDSPGYS-NH2,63%,,
Ac-LYRANGDSPGYS-NH2,75%,,
Ac-LYRANGD(β-SH)SPGYS-NH2,,80%,
Ac-LYRANFD(β-SH)SPGYS-NH2,,78%,
Ac-LYRANAD(β-SH)SPGYS-NH2,,82%,

# Reference: patent publication US20160122383 (published 2016)
